The other results are listed elsewhere or left out.
Legend:
Experiment in all cases: glycan array binding signal (z-score within array); higher = stronger binding
Conditions in all cases: glycan notation: IUPAC condensed, linker removed
[1] = biological target: Fuc(a1-2)[Gal(a1-3)]Gal(b1-4)GlcNAc(b1-2)Man(a1-3)[Fuc(a1-2)[Gal(a1-3)]Gal(b1-4)GlcNAc(b1-2)Man(a1-6)]Man(b1-4)GlcNAc(b1-4)GlcNAc
Method in brief: (§1)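 The binding signal is a Z-score computed within each array. Data were drawn from 3228 arrays in the Consortium for Functional Glycomics database, restricted to those with a known protein sequence. Scores were averaged over arrays of the same protein sequence at different concentrations or buffers, and over linkers, and negative values can be taken as non-binding.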

[2] = biological target: Fuc(a1-2)[Gal(a1-3)]Gal(b1-4)[Fuc(a1-3)]GlcNAc
Method in brief: as §1

[3] = biological target: Fuc(a1-2)[Gal(a1-4)]Gal(b1-4)GlcNAc
Method in brief: as §1

[4] = biological target: Fuc(a1-2)[GalNAc(a1-3)]Gal
Method in brief: as §1

[5] = biological target: Fuc(a1-2)[GalNAc(a1-3)]Gal(b1-3)GlcNAc
Method in brief: as §1

[6] = biological target: Fuc(a1-2)[GalNAc(a1-3)]Gal(b1-3)GlcNAc(b1-2)Man(a1-3)[Fuc(a1-2)[GalNAc(a1-3)]Gal(b1-3)GlcNAc(b1-2)Man(a1-6)]Man(b1-4)GlcNAc(b1-4)GlcNAc
Method in brief: as §1

[7] = biological target: Fuc(a1-2)[GalNAc(a1-3)]Gal(b1-4)Glc
Method in brief: as §1

[8] = biological target: Fuc(a1-2)[GalNAc(a1-3)]Gal(b1-4)GlcNAc
Method in brief: as §1

[9] = biological target: Fuc(a1-2)[GalNAc(a1-3)]Gal(b1-4)GlcNAc(b1-2)Man(a1-3)[GalNAc(a1-3)[Fuc(a1-2)]Gal(b1-4)GlcNAc(b1-2)Man(a1-6)]Man(b1-4)GlcNAc(b1-4)GlcNAc
Method in brief: as §1

[10] = biological target: Fuc(a1-2)[GalNAc(a1-3)]Gal(b1-4)GlcNAc(b1-3)Gal(b1-4)GlcNAc
Method in brief: as §1

[11] = biological target: Fuc(a1-2)[GalNAc(a1-3)]Gal(b1-4)GlcNAc(b1-3)Gal(b1-4)GlcNAc(b1-3)Gal(b1-4)GlcNAc
Method in brief: as §1

[12] = biological target: Fuc(a1-2)[GalNAc(a1-3)]Gal(b1-4)[Fuc(a1-3)]GlcNAc
Method in brief: as §1

[13] = biological target: Fuc(a1-2)[GalNAc(a1-4)]Gal(b1-4)GlcNAc
Method in brief: as §1

[14] = biological target: Fuc(a1-2)[GalNAc(b1-3)]Gal
Method in brief: as §1

Fuc(a1-3)GlcNAc = biological target: Fuc(a1-3)GlcNAc
Method in brief: as §1

[15] = biological target: Fuc(a1-3)[Gal(b1-4)]Glc6S
Method in brief: as §1

[16] = biological target: Fuc(a1-3)[Gal(b1-4)]GlcNAc
Method in brief: as §1

[17] = biological target: Fuc(a1-3)[Gal(b1-4)]GlcNAc(b1-2)Man(a1-3)[Fuc(a1-3)[Gal(b1-4)]GlcNAc(b1-2)Man(a1-6)]Man(b1-4)GlcNAc(b1-4)GlcNAc
Method in brief: as §1

[18] = biological target: Fuc(a1-3)[Gal(b1-4)]GlcNAc(b1-2)Man(a1-6)[Gal(b1-4)GlcNAc(b1-2)Man(a1-3)]Man(b1-4)GlcNAc(b1-4)GlcNAc
Method in brief: as §1

[19] = biological target: Fuc(a1-3)[Gal(b1-4)]GlcNAc(b1-3)Gal(b1-3)[Fuc(a1-4)]GlcNAc
Method in brief: as §1

[20] = biological target: Fuc(a1-3)[Gal(b1-4)]GlcNAc(b1-4)Gal(b1-4)[Fuc(a1-3)]GlcNAc
Method in brief: as §1

[21] = biological target: Fuc(a1-3)[Gal(b1-4)]GlcNAc(b1-4)Gal(b1-4)[Fuc(a1-3)]GlcNAc(b1-4)Gal(b1-4)[Fuc(a1-3)]GlcNAc
Method in brief: as §1

[22] = biological target: Fuc(a1-3)[Gal(b1-4)]GlcNAc6S
Method in brief: as §1

[23] = biological target: Fuc(a1-3)[Gal3S(b1-4)]Glc6S
Method in brief: as §1

[24] = biological target: Fuc(a1-3)[Gal3S(b1-4)]GlcNAc
Method in brief: as §1

[25] = biological target: Fuc(a1-3)[Gal3S(b1-4)]GlcNAc6S
Method in brief: as §1

[26] = biological target: Fuc(a1-3)[GalNAc(b1-4)]GlcNAc
Method in brief: as §1

[27] = biological target: Fuc(a1-3)[Neu5Ac(a2-3)]Gal(b1-4)GlcNAc(b1-3)GalNAc
Method in brief: as §1

Fuc(a1-4)GlcNAc = biological target: Fuc(a1-4)GlcNAc
Method in brief: as §1

Fuc(b1-3)GlcNAc = biological target: Fuc(b1-3)GlcNAc
Method in brief: as §1

Gal(a1-2)Gal = biological target: Gal(a1-2)Gal
Method in brief: as §1

Gal(a1-3)Gal = biological target: Gal(a1-3)Gal
Method in brief: as §1

Gal(a1-3)Gal(b1-3)GlcNAc = biological target: Gal(a1-3)Gal(b1-3)GlcNAc
Method in brief: as §1

Gal(a1-3)Gal(b1-4)Glc = biological target: Gal(a1-3)Gal(b1-4)Glc
Method in brief: as §1

Gal(a1-3)Gal(b1-4)GlcNAc = biological target: Gal(a1-3)Gal(b1-4)GlcNAc
Method in brief: as §1

[28] = biological target: Gal(a1-3)Gal(b1-4)[Fuc(a1-3)]GlcNAc
Method in brief: as §1

[29] = biological target: Gal(a1-3)Gal(b1-4)[Fuc(a1-3)]GlcNAc(b1-2)Man(a1-3)[Gal(a1-3)Gal(b1-4)[Fuc(a1-3)]GlcNAc(b1-2)Man(a1-6)]Man(b1-4)GlcNAc(b1-4)GlcNAc
Method in brief: as §1

Gal(a1-3)GalNAc = biological target: Gal(a1-3)GalNAc
Method in brief: as §1

[30] = biological target: Gal(a1-3)[Gal(a1-4)]Gal(b1-4)GlcNAc
Method in brief: as §1

Gal(a1-4)Gal(b1-4)Glc = biological target: Gal(a1-4)Gal(b1-4)Glc
Method in brief: as §1

Gal(a1-4)Gal(b1-4)GlcNAc = biological target: Gal(a1-4)Gal(b1-4)GlcNAc
Method in brief: as §1

[31] = biological target: Gal(a1-4)Gal(b1-4)GlcNAc(b1-3)Gal(b1-4)Glc
Method in brief: as §1

Gal(a1-4)GlcNAc = biological target: Gal(a1-4)GlcNAc
Method in brief: as §1

Gal(a1-6)Glc = biological target: Gal(a1-6)Glc
Method in brief: as §1

Gal(b1-2)Gal = biological target: Gal(b1-2)Gal
Method in brief: as §1

B1: CTLX (Homo sapiens), Q6UXS0 (protein)
chain: SLCPLFWMEFKGHCYRFFPLNKTWAEADLYCSEFSVGRKSAKLASIHSWEENVFVYDLVNSCVPGIPADVWTGLHDHRQEGQFEWTDGSSYDYSYWDGSQPDDGVHADPEEEDCVQIWYRPTSALRSWNDNTCSRKFPFVCKIPSLTIH
- glycan array binding signal (z-score) [1]: -0.888
- glycan array binding signal (z-score) [2]: 2.81
- glycan array binding signal (z-score) [3]: 0.513
- glycan array binding signal (z-score) [4]: 2.58
- glycan array binding signal (z-score) [5]: 1
- glycan array binding signal (z-score) [6]: -0.789
- glycan array binding signal (z-score) [7]: 0.494
- glycan array binding signal (z-score) [8]: 0.143
- glycan array binding signal (z-score) [9]: 0.689
- glycan array binding signal (z-score) [10]: 1.64
- glycan array binding signal (z-score) [11]: 2.19
- glycan array binding signal (z-score) [12]: -0.551
- glycan array binding signal (z-score) [13]: -0.572
- glycan array binding signal (z-score) [14]: -0.477
- glycan array binding signal (z-score) (Fuc(a1-3)GlcNAc): -0.999
- glycan array binding signal (z-score) [15]: -0.17
- glycan array binding signal (z-score) [16]: -0.533
- glycan array binding signal (z-score) [17]: -0.821
- glycan array binding signal (z-score) [18]: -0.272
- glycan array binding signal (z-score) [19]: -0.295
- glycan array binding signal (z-score) [20]: 1.06
- glycan array binding signal (z-score) [21]: -0.813
- glycan array binding signal (z-score) [22]: 2.08
- glycan array binding signal (z-score) [23]: 5.87
- glycan array binding signal (z-score) [24]: 0.41
- glycan array binding signal (z-score) [25]: -0.164
- glycan array binding signal (z-score) [26]: 1.16
- glycan array binding signal (z-score) [27]: 1.89
- glycan array binding signal (z-score) (Fuc(a1-4)GlcNAc): -0.448
- glycan array binding signal (z-score) (Fuc(b1-3)GlcNAc): -0.912
- glycan array binding signal (z-score) (Gal(a1-2)Gal): 0.5
- glycan array binding signal (z-score) (Gal(a1-3)Gal): 0.482
- glycan array binding signal (z-score) (Gal(a1-3)Gal(b1-3)GlcNAc): 0.525
- glycan array binding signal (z-score) (Gal(a1-3)Gal(b1-4)Glc): 1.11
- glycan array binding signal (z-score) (Gal(a1-3)Gal(b1-4)GlcNAc): -0.489
- glycan array binding signal (z-score) [28]: -0.514
- glycan array binding signal (z-score) [29]: 2.91
- glycan array binding signal (z-score) (Gal(a1-3)GalNAc): -1.04
- glycan array binding signal (z-score) [30]: -1.24
- glycan array binding signal (z-score) (Gal(a1-4)Gal(b1-4)Glc): -0.799
- glycan array binding signal (z-score) (Gal(a1-4)Gal(b1-4)GlcNAc): 0.014
- glycan array binding signal (z-score) [31]: -0.109
- glycan array binding signal (z-score) (Gal(a1-4)GlcNAc): -0.679
- glycan array binding signal (z-score) (Gal(a1-6)Glc): -0.79
- glycan array binding signal (z-score) (Gal(b1-2)Gal): 0.821

From the supplement of paper PMC8728848
